Laboratory results reported in patent publication US20250084409A1, “COMPOSITIONS AND METHODS FOR CAPPING RNAS” (Verve Therapeutics, Inc., priority 2022, published 2025).
Some entries share one result that the patent states for a list of compounds.

Amino acid sequences for entries named in this document (tags omitted). A change or cut given only in a name is not applied to a line headed by its entry.
UniProt P00573: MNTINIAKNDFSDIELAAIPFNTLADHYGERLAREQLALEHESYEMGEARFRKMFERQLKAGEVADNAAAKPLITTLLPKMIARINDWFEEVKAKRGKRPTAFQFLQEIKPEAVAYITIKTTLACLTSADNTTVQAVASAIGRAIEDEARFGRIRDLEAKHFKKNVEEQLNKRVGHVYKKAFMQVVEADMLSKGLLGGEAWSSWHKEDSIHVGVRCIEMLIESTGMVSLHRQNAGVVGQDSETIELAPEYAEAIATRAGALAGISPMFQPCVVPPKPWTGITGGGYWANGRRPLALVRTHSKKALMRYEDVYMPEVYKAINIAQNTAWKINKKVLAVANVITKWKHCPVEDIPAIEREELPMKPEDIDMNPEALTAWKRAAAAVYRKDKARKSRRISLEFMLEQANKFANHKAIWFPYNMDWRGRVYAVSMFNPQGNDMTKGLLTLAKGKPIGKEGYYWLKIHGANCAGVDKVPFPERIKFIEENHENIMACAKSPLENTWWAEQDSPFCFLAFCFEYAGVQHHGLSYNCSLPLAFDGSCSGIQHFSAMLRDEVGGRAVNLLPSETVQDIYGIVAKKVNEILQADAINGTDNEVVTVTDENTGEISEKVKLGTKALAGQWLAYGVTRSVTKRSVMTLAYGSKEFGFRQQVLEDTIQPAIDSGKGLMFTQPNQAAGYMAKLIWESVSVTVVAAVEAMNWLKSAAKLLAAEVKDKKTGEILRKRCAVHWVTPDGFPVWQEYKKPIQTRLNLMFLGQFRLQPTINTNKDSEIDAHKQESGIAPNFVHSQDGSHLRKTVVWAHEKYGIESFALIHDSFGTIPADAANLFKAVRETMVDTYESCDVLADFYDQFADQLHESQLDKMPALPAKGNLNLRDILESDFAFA

Target: T7 RNA polymerase (Escherichia phage T7, UniProt P00573)
Settings: initiator-to-NTP ratio of 1:1 and below; 'may also produce'

COC1C(OP(=O)(O)OCC2OC(n3cnc4c(=O)[nH]c(N)nc43)C(O)C2OP(=O)(O)OCC2OC(n3cnc4c(=O)[nH]c(N)nc43)C(O)C2O)C(COP(=O)(O)OP(=O)([O-])OP(=O)(O)OCC2OC(n3c[n+](C)c4c(=O)[nH]cnc43)C(O)C2O)OC1n1cnc2c(N)ncnc21 (centres unmarked) [compound 5201, m^7I(ppp) Am(p)G(p)G]
capping efficiency: > 90%

COC1C(OP(=O)(O)OCC2OC(n3cnc4c(=O)[nH]c(N)nc43)C(O)C2OP(=O)(O)OCC2OC(n3cnc4c(=O)[nH]c(N)nc43)C(O)C2O)C(COP(=O)(O)OP(=O)([O-])OP(=O)(O)OCC2OC(n3c[n+](C)c4cncnc43)C(O)C2O)OC1n1cnc2c(N)ncnc21 (centres unmarked) [compound 5202, m^7E(ppp) Am(p)G(p)G]
capping efficiency: > 90%

COC1C(OP([O-])(=S)OCC2OC(n3cnc4c(=O)[nH]c(N)nc43)C(O)C2OP(=O)(O)OCC2OC(n3cnc4c(=O)[nH]c(N)nc43)C(O)C2O)C(COP(=O)(O)OP(=O)(O)OP(=O)(O)OCC2OC(n3c[n+](C)c4c(=O)[nH]c(N)nc43)C(O)C2O)OC1n1cnc2c(N)ncnc21 (centres unmarked) [compound 5203, m^7G(ppp) Am(ps)G(p)G]
capping efficiency: > 90%

COC1C(OP([O-])(=S)OCC2OC(n3cnc4c(=O)[nH]c(N)nc43)C(O)C2OP(O)(=S)OCC2OC(n3cnc4c(=O)[nH]c(N)nc43)C(O)C2O)C(COP(=O)(O)OP(=O)(O)OP(=O)(O)OCC2OC(n3c[n+](C)c4c(=O)[nH]c(N)nc43)C(O)C2O)OC1n1cnc2c(N)ncnc21 (centres unmarked) [compound 5204, m^7G(ppp) Am(ps)G(ps)]
capping efficiency: > 90%

COC1C(OP([O-])(=S)OCC2OC(n3cnc4c(=O)[nH]c(N)nc43)C(O)C2OP(=O)(O)OCC2OC(n3cnc4c(=O)[nH]c(N)nc43)C(O)C2O)C(COP(=O)(O)OP(=O)(O)OP(=O)(O)OCC2OC(n3c[n+](C)c4c(=O)[nH]cnc43)C(O)C2O)OC1n1cnc2c(N)ncnc21 (centres unmarked) [compound 5205, m^7I(ppp) Am(ps)G(p)G]
capping efficiency: > 90%

COC1C(OP([O-])(=S)OCC2OC(n3cnc4c(=O)[nH]c(N)nc43)C(O)C2OP(=O)(O)OCC2OC(n3cnc4c(=O)[nH]c(N)nc43)C(O)C2O)C(COP(=O)(O)OP(=O)(O)OP(=O)(O)OCC2OC(n3c[n+](C)c4cncnc43)C(O)C2O)OC1n1cnc2c(N)ncnc21 (centres unmarked) [compound 5206, m^7E(ppp) Am(ps)G(p)G]
capping efficiency: > 90%

COC1C(OP(=O)(O)OCC2OC(n3cnc4c(=O)[nH]c(N)nc43)C(O)C2OP(=O)(O)OCC2OC(n3cnc4c(=O)[nH]c(N)nc43)C(O)C2O)C(COP(=O)(O)OP(=O)([S-])OP(=O)(O)OCC2OC(n3c[n+](C)c4c(=O)[nH]c(N)nc43)C(O)C2O)OC1n1cnc2c(N)ncnc21 (centres unmarked) [compound 5207, m^7G(ppsp) Am(p)G(p)G]
capping efficiency: > 90%

COC1C(OP(O)(=S)OCC2OC(n3cnc4c(=O)[nH]c(N)nc43)C(O)C2OP(=O)(O)OCC2OC(n3cnc4c(=O)[nH]c(N)nc43)C(O)C2O)C(COP(=O)(O)OP(=S)([S-])OP(=O)(O)OCC2OC(n3c[n+](C)c4c(=O)[nH]c(N)nc43)C(O)C2O)OC1n1cnc2c(N)ncnc21 (centres unmarked) [compound 5208, m^7G(ppssp) Am(p)G(p)]
capping efficiency: > 90%

COC1C(OP([O-])(=S)OCC2OC(n3cnc4c(=O)[nH]c(N)nc43)C(O)C2OP(=O)(O)OCC2OC(n3cnc4c(=O)[nH]c(N)nc43)C(O)C2O)C(COP(=O)(O)OP(=O)(O)OP(=O)(O)OCC2OC(n3c[n+](C)c4c(=O)[nH]c(N)nc43)C(O)C2O)OC1n1cnc2cncnc21 (centres unmarked) [compound 5209, m^7G(ppp) Em(ps)G(p)G]
capping efficiency: > 90%

COC1C(COP(=O)(O)OP(=O)(O)OP(=O)(O)OCC2OC(n3cnc4c(N)ncnc43)C(OC)C2OP([O-])(=S)OCC2OC(n3cnc4c(=O)[nH]c(N)nc43)C(O)C2OP(=O)(O)OCC2OC(n3cnc4c(=O)[nH]c(N)nc43)C(O)C2O)OC(n2c[n+](C)c3c(=O)[nH]c(N)nc32)C1O (centres unmarked) [compound 5210, m^7G(3′OMe)(ppp) Am (ps)G(p)G]
capping efficiency: > 90%

COC1C(COP(=O)(O)OP(=O)(O)OP(=O)(O)OCC2OC(n3cnc4cncnc43)C(OC)C2OP([O-])(=S)OCC2OC(n3cnc4c(=O)[nH]c(N)nc43)C(O)C2OP(=O)(O)OCC2OC(n3cnc4c(=O)[nH]c(N)nc43)C(O)C2O)OC(n2c[n+](C)c3c(=O)[nH]c(N)nc32)C1O (centres unmarked) [compound 5211, m^7G(3′OMe) (ppp)Em (ps)G(p)G]
capping efficiency: > 90%
